For this assay, the target named is T1, Flag-TRIM72 stably expressed in Hela cells (UniProt Q6ZMU5).
T1 sequence: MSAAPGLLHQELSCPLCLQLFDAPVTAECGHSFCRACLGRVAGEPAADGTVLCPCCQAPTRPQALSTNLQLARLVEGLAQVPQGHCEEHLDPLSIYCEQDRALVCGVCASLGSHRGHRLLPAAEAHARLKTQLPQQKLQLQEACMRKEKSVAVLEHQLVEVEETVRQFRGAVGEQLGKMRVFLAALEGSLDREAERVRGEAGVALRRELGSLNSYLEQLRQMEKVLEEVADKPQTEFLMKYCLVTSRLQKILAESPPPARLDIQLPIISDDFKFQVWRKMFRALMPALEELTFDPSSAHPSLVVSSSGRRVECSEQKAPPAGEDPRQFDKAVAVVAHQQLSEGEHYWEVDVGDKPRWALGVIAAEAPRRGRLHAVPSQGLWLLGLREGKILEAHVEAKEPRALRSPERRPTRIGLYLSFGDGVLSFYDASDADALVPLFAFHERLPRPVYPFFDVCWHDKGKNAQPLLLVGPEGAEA
Put plainly: affinity purification with mass spectrometry.

The chains behind the UniProt entries cited, without tags or fusion partners.
UniProt O60826: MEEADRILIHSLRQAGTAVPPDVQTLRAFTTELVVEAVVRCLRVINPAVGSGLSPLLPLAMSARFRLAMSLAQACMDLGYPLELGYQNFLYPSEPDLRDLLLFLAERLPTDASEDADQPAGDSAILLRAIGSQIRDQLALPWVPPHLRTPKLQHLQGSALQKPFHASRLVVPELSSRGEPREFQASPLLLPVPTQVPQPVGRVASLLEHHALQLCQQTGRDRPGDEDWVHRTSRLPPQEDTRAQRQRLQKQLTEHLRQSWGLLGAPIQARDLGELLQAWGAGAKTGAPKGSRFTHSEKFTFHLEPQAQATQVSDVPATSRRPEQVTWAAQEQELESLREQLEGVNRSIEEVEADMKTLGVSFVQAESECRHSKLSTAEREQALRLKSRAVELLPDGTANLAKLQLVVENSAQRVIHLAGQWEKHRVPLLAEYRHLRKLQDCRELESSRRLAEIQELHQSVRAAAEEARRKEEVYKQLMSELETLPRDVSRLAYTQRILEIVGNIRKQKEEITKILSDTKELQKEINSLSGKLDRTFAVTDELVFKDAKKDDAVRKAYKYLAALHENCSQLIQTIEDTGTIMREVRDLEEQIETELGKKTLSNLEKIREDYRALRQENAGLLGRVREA

Results are given in words; binding and its absence hold for the method and conditions named. In cells and extracts the contact can be indirect. Here binding means that the protein was enriched with, or labelled near, the bait; the list need not be complete. Tags and fused reporters may be left off the sequences shown.

We go through one substance from doi:10.1101/2025.01.09.632080.

Take “CCDC22, endogenous in Hela cells (from UniProt O60826 1-627)”: the binding result is reported as “binds”.
